Experimental data published in paper PMC8559680.
Results are given in words; binding and its absence hold for the method and conditions named. For some assays here: Binding seen in cells or lysates may run through a third protein. Some binding calls cover weakened binding; strength is not graded here. For some assays here: Tags and fused reporters may be left off the sequences shown.

T1: Ref2-3C-SII (yeast) (UniProt P42073)
T1 sequence: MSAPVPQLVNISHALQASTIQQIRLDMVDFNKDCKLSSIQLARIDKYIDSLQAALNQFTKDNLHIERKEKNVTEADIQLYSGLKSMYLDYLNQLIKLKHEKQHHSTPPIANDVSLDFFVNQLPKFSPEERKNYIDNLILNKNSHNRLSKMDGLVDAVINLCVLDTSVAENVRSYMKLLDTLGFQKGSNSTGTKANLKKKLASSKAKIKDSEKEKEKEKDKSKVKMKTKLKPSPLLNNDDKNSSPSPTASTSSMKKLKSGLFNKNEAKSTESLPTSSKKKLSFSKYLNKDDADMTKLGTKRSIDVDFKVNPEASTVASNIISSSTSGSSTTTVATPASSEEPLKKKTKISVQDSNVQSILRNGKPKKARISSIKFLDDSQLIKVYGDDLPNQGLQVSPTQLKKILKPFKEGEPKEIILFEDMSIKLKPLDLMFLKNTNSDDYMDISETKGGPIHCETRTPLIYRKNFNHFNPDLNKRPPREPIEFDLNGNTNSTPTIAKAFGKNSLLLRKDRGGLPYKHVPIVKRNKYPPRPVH

T2: Yth1 (untagged) (yeast) (UniProt Q06102)
T2 sequence: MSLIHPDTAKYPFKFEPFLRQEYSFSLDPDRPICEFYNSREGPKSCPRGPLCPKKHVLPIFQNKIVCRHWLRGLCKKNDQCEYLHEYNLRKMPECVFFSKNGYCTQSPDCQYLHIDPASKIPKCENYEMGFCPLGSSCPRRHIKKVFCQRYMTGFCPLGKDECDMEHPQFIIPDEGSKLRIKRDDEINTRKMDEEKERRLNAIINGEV

T3: Pfs2-3C-SII (yeast) (UniProt P42841)
T3 sequence: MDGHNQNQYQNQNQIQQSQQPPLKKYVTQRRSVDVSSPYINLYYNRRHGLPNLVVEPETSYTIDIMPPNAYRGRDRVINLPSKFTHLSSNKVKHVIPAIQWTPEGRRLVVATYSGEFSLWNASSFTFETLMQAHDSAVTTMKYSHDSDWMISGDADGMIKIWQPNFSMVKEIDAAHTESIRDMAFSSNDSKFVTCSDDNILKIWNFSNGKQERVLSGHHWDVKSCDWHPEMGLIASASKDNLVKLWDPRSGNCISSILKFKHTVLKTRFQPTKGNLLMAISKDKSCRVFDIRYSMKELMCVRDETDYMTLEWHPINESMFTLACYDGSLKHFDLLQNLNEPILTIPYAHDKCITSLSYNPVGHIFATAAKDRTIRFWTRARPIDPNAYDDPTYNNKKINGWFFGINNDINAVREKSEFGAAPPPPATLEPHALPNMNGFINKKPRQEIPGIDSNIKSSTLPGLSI

B1: Cft1 (protein, UniProt Q06632 1-1357)
chain: MNVYDDVLDATVVSHSLATHFTTSDYEELLVVRTNILSVYRPTRDGKLYLTDEFKFHGLITDIGLIPQKDSPLSCLLLCTGVAKISILKFNTLTNSIDTLSLHYYEGKFKGKSLVELAKISTLRMDPGSSCALLFNNDIIAFLPFHVNKNDDDEEEEDEDENIDDSELIHSMNQKSQGTNTFNKRKRTKLGDKFTAPSVVLVASELYEGAKNIIDIQFLKNFTKPTIALLYQPKLVWAGNTTISKLPTQYVILTLNIQPAESATKIESTTIAFVKELPWDLHTIVPVSNGAIIVGTNELAFLDNTGVLQSTVLLNSFADKELQKTKIINNSSLEIMFREKNTTSIWIPSSKSKNGGSNNDETLLLMDLKSNIYYIQMEAEGRLLIKFDIFKLPIVNDLLKENSNPKCITRLNATNSNKNMDLFIGFGSGNALVLRLNNLKSTIETREAHNPSSGTNSLMDINDDDDEEMDDLYADEAPENGLTTNDSKGTVETVQPFDIELLSSLRNVGPITSLTVGKVSSIDDVVKGLPNPNKNEYSLVATSGNGSGSHLTVIQTSVQPEIELALKFISITQIWNLKIKGRDRYLITTDSTKSRSDIYESDNNFKLHKGGRLRRDATTVYISMFGEEKRIIQVTTNHLYLYDTHFRRLTTIKFDYEVIHVSVMDPYILVTVSRGDIKIFELEEKNKRKLLKVDLPEILNEMVITSGLILKSNMCNEFLIGLSKSQEEQLLFTFVTADNQIIFFTKDHNDRIFQLNGVDQLNESLYISTYQLGDEIVPDPSIKQVMINKLGHDNKEEYLTILTFGGEIYQYRKLPQRRSRFYRNVTRNDLAITGAPDNAYAKGVSSIERIMHYFPDYNGYSVIFVTGSVPYILIKEDDSTPKIFKFGNIPLVSVTPWSERSVMCVDDIKNARVYTLTTDNMYYGNKLPLKQIKISNVLDDYKTLQKLVYHERAQLFLVSYCKRVPYEALGEDGEKVIGYDENVPHAEGFQSGILLINPKSWKVIDKIDFPKNSVVNEMRSSMIQINSKTKRKREYIIAGVANATTEDTPPTGAFHIYDVIEVVPEPGKPDTNYKLKEIFQEEVSGTVSTVCEVSGRFMISQSQKVLVRDIQEDNSVIPVAFLDIPVFVTDSKSFGNLLIIGDAMQGFQFIGFDAEPYRMISLGRSMSKFQTMSLEFLVNGGDMYFAATDADRNVHVLKYAPDEPNSLSGQRLVHCSSFTLHSTNSCMMLLPRNEEFGSPQVPSFQNVGGQVDGSVFKIVPLSEEKYRRLYVIQQQIIDRELQLGGLNPRMERLANDFYQMGHSMRPMLDFNVIRRFCGLAIDRRKSIAQKAGRHAHFEAWRDIINIEFSMRSLCQGK
B2: Fip1_(Δ110–180) (protein, UniProt P45976)
chain: MSSSEDEDDKFLYGSDSELALPSSKRSRDDEADAGASSNPDIVKRQKFDSPVEETPATARDDRSDEDIYSDSSDDDSDSDLEVIISLGPDPTRLDAKLLDSYSTAATSSDPEVLKEKPWRQPGANLSDYFNYGFNEFTWMEYLHRQEKLQQDYNPRRILMGLLSLQQQGKLNSANDTDSNLGNIIDNNNNVNNANMSNLNSNMGNSMSGTPNPPAPPMHPSFPPLPMFGSFPPFPMPGMMPPMNQQPNQNQNQNSK
B3: Mpe1 (protein, UniProt P35728 1-441)
chain: MSSTIFYRFKSQRNTSRILFDGTGLTVFDLKREIIQENKLGDGTDFQLKIYNPDTEEEYDDDAFVIPRSTSVIVKRSPAIKSFSVHSRLKGNVGAAALGNATRYVTGRPRVLQKRQHTATTTANVSGTTEEERIASMFATQENQWEQTQEEMSAATPVFFKSQTNKNSAQENEGPPPPGYMCYRCGGRDHWIKNCPTNSDPNFEGKRIRRTTGIPKKFLKSIEIDPETMTPEEMAQRKIMITDEGKFVVQVEDKQSWEDYQRKRENRQIDGDETIWRKGHFKDLPDDLKCPLTGGLLRQPVKTSKCCNIDFSKEALENALVESDFVCPNCETRDILLDSLVPDQDKEKEVETFLKKQEELHGSSKDGNQPETKKMKLMDPTGTAGLNNNTSLPTSVNNGGTPVPPVPLPFGIPPFPMFPMPFMPPTATITNPHQADASPKK
B4: Pta1 (protein, UniProt Q01329 1-785)
chain: MSSAEMEQLLQAKTLAMHNNPTEMLPKVLETTASMYHNGNLSKLKLPLAKFFTQLVLDVVSMDSPIANTERPFIAAQYLPLLLAMAQSTADVLVYKNIVLIMCASYPLVLDLVAKTSNQEMFDQLCMLKKFVLSHWRTAYPLRATVDDETDVEQWLAQIDQNIGVKLATIKFISEVVLSQTKSPSGNEINSSTIPDNHPVLNKPALESEAKRLLDMLLNYLIEEQYMVSSVFIGIINSLSFVIKRRPQTTIRILSGLLRFNVDAKFPLEGKSDLNYKLSKRFVERAYKNFVQFGLKNQIITKSLSSGSGSSIYSKLTKISQTLHVIGEETKSKGILNFDPSKGNSKKTLSRQDKLKYISLWKRQLSALLSTLGVSTKTPTPVSAPATGSSTENMLDQLKILQKYTLNKASHQGNTFFNNSPKPISNTYSSVYSLMNSSNSNQDVTQLPNDILIKLSTEAILQMDSTKLITGLSIVASRYTDLMNTYINSVPSSSSSKRKSDDDDDGNDNEEVGNDGPTANSKKIKMETEPLAEEPEEPEDDDRMQKMLQEEESAQEISGDANKSTSAIKEIAPPFEPDSLTQDEKLKYLSKLTKKLFELSGRQDTTRAKSSSSSSILLDDDDSSSWLHVLIRLVTRGIEAQEASDLIREELLGFFIQDFEQRVSLIIEWLNEEWFFQTSLHQDPSNYKKWSLRVLESLGPFLENKHRRFFIRLMSELPSLQSDHLEALKPICLDPARSSLGFQTLKFLIMFRPPVQDTVRDLLHQLKQEDEGLHKQCDSLLDRLK
B5: Pti1 (protein, UniProt P39927 1-425)
chain: MTDPRRRTGRHFLTPENLSSTLQITNLPPEWNQDIITSVVAGSGPVIDIKAKNDPRTGKLTGVLFDYLTSKDCKRAWEILNRIENFPVKIEQIIPPNYKDHLRETANKNSQKQVLQLNRDSYPFEAGLELPFEMVTEVPIPRRPPPPQAANNTNSVSNNTNIQFPDILSKASKHLPSFQDGSIIAPDKISQNLSKIPPLQLIEIISNLKILSNQENIQKSQLESFLDTNSDITISVTQALLEMGFIDYSVVTKVLKSQVGEAPSLLSSNNTSNSNTPVSVIRNNTPLHVPSNEVSNNPNNMPLNVAMPMPMSTPPFIPLPLQQQPFGFAPPGPFMPPAQGPSMGQPVLANQLGQVQQQNISSTEGPSNANKANDSGTINMAKLQLLPENQQDMIKQVLTLTPAQIQSLPSDQQLMVENFRKEYII
B6: Swd2 (protein, UniProt P36104 1-329)
chain: MTTVSINKPNLLKFKHVKSFQPQEKDCGPVTSLNFDDNGQFLLTSSSNDTMQLYSATNCKFLDTIASKKYGCHSAIFTHAQNECIYSSTMKNFDIKYLNLETNQYLRYFSGHGALVNDLKMNPVNDTFLSSSYDESVRLWDLKISKPQVIIPSLVPNCIAYDPSGLVFALGNPENFEIGLYNLKKIQEGPFLIIKINDATFSQWNKLEFSNNGKYLLVGSSIGKHLIFDAFTGQQLFELIGTRAFPMREFLDSGSACFTPDGEFVLGTDYDGRIAIWNHSDSISNKVLRPQGFIPCVSHETCPRSIAFNPKYSMFVTADETVDFYVYDE
B7: Fip1_(226) (Fip1 residues 1–226), co-expressed in Sf9 (domain or fragment, UniProt P45976 1-226)
chain: MSSSEDEDDKFLYGSDSELALPSSKRSRDDEADAGASSNPDIVKRQKFDSPVEETPATARDDRSDEDIYSDSSDDDSDSDLEVIISLGPDPTRLDAKLLDSYSTAATSSSKDVISVATDVSNTITKTSDERLITEGEANQGVTATTVKATESDGNVPKAMTGSIDLDKEGIFDSVGITTIDPEVLKEKPWRQPGANLSDYFNYGFNEFTWMEYLHRQEKLQQDYNP
B8: Fip1_(Δ1–60) (domain or fragment, UniProt P45976 61-327)
chain: DDRSDEDIYSDSSDDDSDSDLEVIISLGPDPTRLDAKLLDSYSTAATSSSKDVISVATDVSNTITKTSDERLITEGEANQGVTATTVKATESDGNVPKAMTGSIDLDKEGIFDSVGITTIDPEVLKEKPWRQPGANLSDYFNYGFNEFTWMEYLHRQEKLQQDYNPRRILMGLLSLQQQGKLNSANDTDSNLGNIIDNNNNVNNANMSNLNSNMGNSMSGTPNPPAPPMHPSFPPLPMFGSFPPFPMPGMMPPMNQQPNQNQNQNSK
B9: 8His-3C-Yth1 (protein, UniProt Q06102 1-208)
chain: T2 sequence

biological target: T1, Ref2-3C-SII (yeast); test: co-purification (StrepTactin affinity, anion exchange, size exclusion); StrepII tag on Ref2 as bait; Sf9 cells co-infected with two baculoviruses (nuclease and polymerase modules; phosphatase module); purified complex analysed by SDS-PAGE

| Binder | binding |
| --- | --- |
| B1 | binds |
| B2 | binds |
| B3 | binds |
| B4 | binds |
| B5 | binds |
| B6 | binds |

biological target: T2, Yth1 (untagged) (yeast); test: pull-down; StrepII (SII) tag on Pfs2 as bait; polymerase module subunits co-expressed in Sf9 cells; clarified lysate on Streptactin resin, 4°C; eluate analysed by SDS-PAGE

| Binder | binding |
| --- | --- |
| B7 | binds |
| B8 | binds |
| B2 | binds |

biological target: T3, Pfs2-3C-SII (yeast); test: as above

| Binder | binding |
| --- | --- |
| B1 | binds |
| B9 | binds |
